Data on 23 sequences can be found in article PMC7862700.

Sequences of proteins named here, by UniProt entry; tags and fusion partners are left off. A change or cut given only in a name is not applied to a line headed by its entry.
UniProt P32519: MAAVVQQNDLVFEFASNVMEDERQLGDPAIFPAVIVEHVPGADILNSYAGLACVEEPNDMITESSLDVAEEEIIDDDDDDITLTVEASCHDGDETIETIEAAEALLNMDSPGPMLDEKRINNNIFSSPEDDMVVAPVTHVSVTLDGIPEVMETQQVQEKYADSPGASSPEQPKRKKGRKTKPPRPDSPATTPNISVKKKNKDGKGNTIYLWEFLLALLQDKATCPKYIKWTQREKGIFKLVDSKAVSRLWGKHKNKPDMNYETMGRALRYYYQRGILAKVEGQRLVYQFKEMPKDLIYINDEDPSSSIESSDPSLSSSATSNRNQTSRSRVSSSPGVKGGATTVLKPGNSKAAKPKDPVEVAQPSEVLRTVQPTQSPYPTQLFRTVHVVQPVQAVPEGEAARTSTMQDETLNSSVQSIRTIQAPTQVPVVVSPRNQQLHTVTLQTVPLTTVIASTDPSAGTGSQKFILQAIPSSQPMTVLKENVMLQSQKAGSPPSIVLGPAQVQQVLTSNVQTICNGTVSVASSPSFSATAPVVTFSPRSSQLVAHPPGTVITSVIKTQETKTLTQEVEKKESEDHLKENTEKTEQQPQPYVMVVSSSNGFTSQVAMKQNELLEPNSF
UniProt P50549: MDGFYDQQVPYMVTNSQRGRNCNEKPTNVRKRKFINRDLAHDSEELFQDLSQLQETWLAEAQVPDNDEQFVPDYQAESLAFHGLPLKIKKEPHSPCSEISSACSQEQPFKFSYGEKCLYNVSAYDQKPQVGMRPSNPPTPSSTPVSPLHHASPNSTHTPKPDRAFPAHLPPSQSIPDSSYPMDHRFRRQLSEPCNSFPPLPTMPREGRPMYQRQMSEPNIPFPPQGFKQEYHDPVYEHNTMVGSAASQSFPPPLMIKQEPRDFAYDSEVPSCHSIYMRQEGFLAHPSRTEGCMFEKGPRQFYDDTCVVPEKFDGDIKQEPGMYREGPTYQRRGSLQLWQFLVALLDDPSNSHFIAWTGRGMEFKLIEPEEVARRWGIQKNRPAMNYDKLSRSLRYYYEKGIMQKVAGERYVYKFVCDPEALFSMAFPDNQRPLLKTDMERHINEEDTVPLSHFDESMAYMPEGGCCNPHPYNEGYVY

The entries are a selection whose mix differs from that of the whole data set. For part of these data: At the low end of the ranking the order means little. This is one part of the list. For part of these data: The source does not settle which construct or isoform was used.

Common to all, as to assay: DAPPL (digital affinity profiling via proximity ligation, sequencing)
What all share (conditions): 10 mM Tris-HCl pH 7.5, 50 mM NaCl, 1 mM DTT, 4% glycerol, room temperature, 30 min; GST-TFs on glutathione beads, 16-mer random dsDNA library, 0.1% …; high values mean tight binding; double strand, one strand shown; scale: fold enrichment (6-mer frequency, TF over GST control)

One assay concerns the target T1, ERG (UniProt P11308).
T1 sequence: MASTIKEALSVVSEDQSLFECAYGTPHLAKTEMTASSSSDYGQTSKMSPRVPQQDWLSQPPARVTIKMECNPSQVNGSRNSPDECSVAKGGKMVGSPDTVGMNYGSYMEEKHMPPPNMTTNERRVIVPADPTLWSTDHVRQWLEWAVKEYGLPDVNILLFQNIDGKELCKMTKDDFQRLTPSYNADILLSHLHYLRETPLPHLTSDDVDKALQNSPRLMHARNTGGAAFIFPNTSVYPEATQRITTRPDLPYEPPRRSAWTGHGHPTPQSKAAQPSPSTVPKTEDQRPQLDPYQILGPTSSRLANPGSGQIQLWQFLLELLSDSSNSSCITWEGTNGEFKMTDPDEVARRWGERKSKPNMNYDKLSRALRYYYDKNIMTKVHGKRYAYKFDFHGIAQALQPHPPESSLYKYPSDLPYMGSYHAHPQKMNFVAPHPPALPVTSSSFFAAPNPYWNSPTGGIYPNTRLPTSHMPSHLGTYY

A further assay has as its target ELF1 (UniProt P32519).
For another assay, the target named is T2, ELK4 (UniProt P28324-2).
T2 sequence: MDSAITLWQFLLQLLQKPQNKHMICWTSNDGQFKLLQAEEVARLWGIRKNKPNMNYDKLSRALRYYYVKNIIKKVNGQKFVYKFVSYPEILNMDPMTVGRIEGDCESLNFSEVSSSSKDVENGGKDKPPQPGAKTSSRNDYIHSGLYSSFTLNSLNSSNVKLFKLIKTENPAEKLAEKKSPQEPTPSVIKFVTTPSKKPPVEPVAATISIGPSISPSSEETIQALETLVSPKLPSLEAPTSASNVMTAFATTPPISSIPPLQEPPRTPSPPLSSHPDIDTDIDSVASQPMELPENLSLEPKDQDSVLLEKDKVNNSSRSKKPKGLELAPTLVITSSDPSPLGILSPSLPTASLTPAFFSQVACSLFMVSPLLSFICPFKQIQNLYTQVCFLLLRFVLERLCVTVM

The next assay addresses T3, ETV4 (UniProt P43268).
T3 sequence: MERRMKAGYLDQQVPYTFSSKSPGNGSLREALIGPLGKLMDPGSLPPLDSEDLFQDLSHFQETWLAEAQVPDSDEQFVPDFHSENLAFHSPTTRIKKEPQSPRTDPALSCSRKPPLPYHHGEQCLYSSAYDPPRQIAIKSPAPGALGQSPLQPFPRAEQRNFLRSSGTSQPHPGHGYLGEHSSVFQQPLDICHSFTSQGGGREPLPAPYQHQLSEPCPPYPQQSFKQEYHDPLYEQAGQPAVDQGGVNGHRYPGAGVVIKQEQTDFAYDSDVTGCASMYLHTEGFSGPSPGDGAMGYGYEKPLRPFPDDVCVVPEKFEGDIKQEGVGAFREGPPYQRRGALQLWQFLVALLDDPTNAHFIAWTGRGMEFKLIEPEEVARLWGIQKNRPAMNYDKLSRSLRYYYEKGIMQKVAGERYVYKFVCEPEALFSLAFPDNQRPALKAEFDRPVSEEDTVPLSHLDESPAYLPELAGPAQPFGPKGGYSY

The next assay has as its target ETV1 (UniProt P50549).
Another assay has as its target T4, ERF (UniProt P50548).
T4 sequence: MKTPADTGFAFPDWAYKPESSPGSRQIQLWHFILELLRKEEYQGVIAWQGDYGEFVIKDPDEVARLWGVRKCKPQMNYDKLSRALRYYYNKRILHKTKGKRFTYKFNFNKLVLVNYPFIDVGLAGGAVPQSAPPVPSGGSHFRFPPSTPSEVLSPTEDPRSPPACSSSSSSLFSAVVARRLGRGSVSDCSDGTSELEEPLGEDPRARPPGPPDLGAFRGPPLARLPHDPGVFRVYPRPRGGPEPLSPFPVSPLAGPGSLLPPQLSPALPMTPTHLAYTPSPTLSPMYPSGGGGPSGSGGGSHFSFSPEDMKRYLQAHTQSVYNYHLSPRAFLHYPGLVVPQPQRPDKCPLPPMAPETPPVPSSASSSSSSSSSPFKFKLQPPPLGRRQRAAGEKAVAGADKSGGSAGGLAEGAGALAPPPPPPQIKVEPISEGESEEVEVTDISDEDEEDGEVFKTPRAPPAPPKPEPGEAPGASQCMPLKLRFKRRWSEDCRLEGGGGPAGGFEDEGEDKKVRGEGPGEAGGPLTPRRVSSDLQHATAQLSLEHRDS

With GCCACG, the binding signal with ERG came to 0.925; with ELF1, 0.864; with ELK4, 0.998; with ETV4, 1.03; in the assay with ETV1, 0.945; with ERF, 0.861.
In the case of GGAGAC, the binding signal with ERG was found to be 0.166; with ELF1, 0.148; with ELK4 it was 0.136; in the assay with ETV4, 0.132; with ETV1, 0.141; with ERF, 0.152.
Regarding GCGGCC, the binding signal with ERG turned out to be 0.811; with ELF1, 0.874; in the assay with ELK4, 0.928; with ETV4 it was 0.767; in the assay with ETV1, 0.865; with ERF it was 0.81.
Take CCACGG: the binding signal in the assay with ERG worked out at 0.881; with ELF1, 0.927; with ELK4, 0.974; with ETV4 it was 0.909; with ETV1 it was 0.908; with ERF it was 0.838.
In the case of GAGTTG, the binding signal with ERG came out at 0.457; with ELF1 it was 0.526; with ELK4 it was 0.504; with ETV4, 0.544; in the assay with ETV1, 0.46; with ERF, 0.511.
With AGGCCT, the binding signal with ERG was 0.951; with ELF1 it was 0.929; in the assay with ELK4 it was 0.991; in the assay with ETV4, 0.972; with ETV1, 0.961; in the assay with ERF it was 0.883.
Take GGGTAG: the binding signal with ERG was found to be 0.647; with ELF1, 0.657; in the assay with ELK4, 0.593; with ETV4, 0.706; in the assay with ETV1, 0.657; with ERF, 0.735.
As to GTAGGT, the binding signal stood at 0.889 with ERG; 0.818 in the assay with ELF1; 0.698 with ELK4; 0.794 in the assay with ETV4; 0.773 with ETV1; 0.902 with ERF.
Regarding CGGGTA, the binding signal with ERG was found to be 0.846; with ELF1, 0.846; with ELK4, 0.929; in the assay with ETV4, 0.815; in the assay with ETV1, 0.8; with ERF, 0.829.
With CCATGT, the binding signal in the assay with ERG was determined as 0.768; with ELF1, 0.805; with ELK4 it was 0.995; with ETV4, 0.834; with ETV1, 0.778; with ERF, 0.911.
With ATCGAG, the binding signal worked out at 0.83 with ERG; 0.858 with ELF1; 0.867 with ELK4; 0.862 in the assay with ETV4; 0.869 with ETV1; 0.937 with ERF.
Turning to GGGAAG, the binding signal with ERG was found to be 0.864; with ELF1, 0.748; in the assay with ELK4, 0.829; in the assay with ETV4, 0.836; in the assay with ETV1 it was 0.902; with ERF it was 0.802.
Regarding GATGTG, the binding signal was found to be 0.945 in the assay with ERG; 0.896 with ELF1; 0.906 in the assay with ELK4; 0.963 with ETV4; 0.955 in the assay with ETV1; 0.856 with ERF.
GAGATC: the binding signal stood at 0.466 with ERG; 0.467 in the assay with ELF1; 0.465 in the assay with ELK4; 0.473 with ETV4; 0.483 with ETV1; 0.45 in the assay with ERF.
In the case of AAGTGA, the binding signal with ERG was found to be 0.701; with ELF1, 0.632; with ELK4, 0.551; with ETV4, 0.601; in the assay with ETV1, 0.654; in the assay with ERF it was 0.599.
Turning to AGGATC, the binding signal with ERG is 0.876; with ELF1, 0.867; with ELK4, 0.819; with ETV4 it was 0.858; with ETV1 it was 0.929; with ERF it was 0.928.
As to ACGGGC, the binding signal in the assay with ERG came out at 0.795; with ELF1 it was 0.806; with ELK4 it was 0.974; with ETV4 it was 0.831; with ETV1, 0.902; in the assay with ERF, 0.942.
GGCCGA: the binding signal was 0.679 in the assay with ERG; 0.734 in the assay with ELF1; 0.721 with ELK4; 0.756 with ETV4; 0.648 in the assay with ETV1; 0.831 with ERF.
For the sequence GAGAGG, the binding signal with ERG was 0.481; with ELF1, 0.515; with ELK4, 0.492; with ETV4 it was 0.487; with ETV1, 0.484; in the assay with ERF it was 0.497.
On to AGATAC, for which the binding signal is 0.955 with ERG; 0.96 with ELF1; 0.972 with ELK4; 0.901 in the assay with ETV4; 0.985 with ETV1; 0.891 with ERF.
On to GCACGG, for which the binding signal was found to be 0.814 in the assay with ERG; 0.827 in the assay with ELF1; 0.817 with ELK4; 0.83 in the assay with ETV4; 0.801 with ETV1; 0.909 with ERF.
ACGTCG: the binding signal stood at 0.608 in the assay with ERG; 0.636 with ELF1; 0.55 with ELK4; 0.609 with ETV4; 0.688 with ETV1; 0.636 with ERF.
With ATCGTG, the binding signal with ERG came out at 0.416; with ELF1, 0.408; with ELK4, 0.491; in the assay with ETV4 it was 0.38; with ETV1, 0.355; with ERF, 0.419.
